Test results as given in PubChem BioAssay AID1671190 (National Center for Advancing Translational Sciences (NCATS), 2021).
About 6,100 (1.1%) of roughly 580,000 compounds were called active. This list was built around the results that the source calls inconclusive (neither active nor inactive); the mix of calls is not that of the screen. The call rests on the fitted dose curve; in most records, active means well fitted inhibition curve with a large enough effect; inconclusive means small, poorly fitted or top-dose-only effect, or another doubt; inactive means no such curve, though single readings can be large or run the other way. Potencies of inconclusive entries are doubtful fits and often do not repeat.

Chains of the proteins cited; added tags and fusions are not shown. Lines headed by an entry give the natural chain unless they say otherwise; changes in a name come on top.
UniProt P18054: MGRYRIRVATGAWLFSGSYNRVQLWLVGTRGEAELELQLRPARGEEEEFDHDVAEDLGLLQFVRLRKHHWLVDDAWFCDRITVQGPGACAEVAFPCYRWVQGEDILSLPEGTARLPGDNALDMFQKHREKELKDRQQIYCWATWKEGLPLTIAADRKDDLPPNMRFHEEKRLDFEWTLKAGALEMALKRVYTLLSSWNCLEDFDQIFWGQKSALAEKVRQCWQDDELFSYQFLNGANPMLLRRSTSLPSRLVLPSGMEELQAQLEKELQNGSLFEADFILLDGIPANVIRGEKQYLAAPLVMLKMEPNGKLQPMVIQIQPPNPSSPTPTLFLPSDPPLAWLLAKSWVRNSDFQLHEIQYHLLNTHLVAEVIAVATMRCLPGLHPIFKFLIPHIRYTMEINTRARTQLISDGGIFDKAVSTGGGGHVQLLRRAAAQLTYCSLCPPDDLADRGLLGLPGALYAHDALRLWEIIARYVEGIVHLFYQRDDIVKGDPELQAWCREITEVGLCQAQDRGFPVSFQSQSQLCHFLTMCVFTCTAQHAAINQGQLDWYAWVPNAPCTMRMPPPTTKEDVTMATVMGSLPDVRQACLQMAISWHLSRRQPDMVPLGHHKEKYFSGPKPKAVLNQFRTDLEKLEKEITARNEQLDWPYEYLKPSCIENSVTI

Biological target: Polyunsaturated fatty acid lipoxygenase ALOX12 (Homo sapiens) (UniProt P18054)
Assay: Primary qHTS assay for inhibitors of human arachidonate 12S-lipoxygenase (ALOX12): Round 2
Settings: purified 12hLO, xylenol orange hydroperoxide absorbance; activity change, negative = inhibition: at 108 µM (top of the series) unless noted
How it was run: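 Hydroperoxide product was detected by ferrous iron/xylenol orange as the 573 to 405 nm absorbance ratio. Arachidonic acid at 40 uM (final) was turned over for 30 min at room temperature by 150 nM human 12hLO, pH 7.0 Hepes buffer, after 15 min compound preincubation.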
On the % scale 0 is the no-effect control and ±100 the full control effect; potency means the concentration at half of the fitted maximal effect.

Row | SMILES | activity change, negative = inhibition | Potency
1 | Cc1nc(/N=C(\N)NC(=O)c2ccccc2N)nc2ccccc12 | inactive: 9.49% | –
2 | CC(=O)C1=C(O)C(=O)N(c2ccccn2)C1c1ccccc1[N+](=O)[O-] (stereo not drawn) | – | active: 14.1 µM
3 | Cc1nc2nc(SCC(=O)NCCCN3CCCCCC3)nn2c(C)c1Cc1ccccc1 | – | inconclusive: 44.7 µM [inhibitor, partial curve]
4 | O=C(O)C1(Oc2ccc3ncccc3c2)CCN(Cc2ccncc2)CC1 | – | inconclusive: 14.1 µM [inhibitor, full curve]
5 | CC(=O)c1cc2c(cc1NC(=O)CN1Cc3ccccc3C1=O)OCO2 | inactive: -17% | –
6 | CC(C)C[C@H](NC(=O)c1nc[nH]c1C(=O)NC1CCNCC1)C(=O)OCc1ccccc1 | inactive: 6.98% | –
7 | COc1ccc(OC)c(NC(=O)COC(=O)c2cnc(C)cn2)c1 | – | inconclusive: 89.1 µM [inhibitor, partial curve, poor fit]
8 | CCOC(=O)C1=C(C)N=C2c3ccccc3C(=O)C2C1c1ccc(Br)cc1 (stereo not drawn) | – | inconclusive: 50.1 µM [inhibitor, single point]
9 | O=C(CN1CCN(C(=O)N2CCOCC2)CC1)Nc1ccc(Br)cc1 | inactive: 21.1% | –
10 | Cc1ccc(C(=O)NCC(=O)N(C)Cc2ccc(-c3ccc(Br)cc3)o2)cc1 | – | inconclusive: 56.2 µM [inhibitor, partial curve]
11 | O=C(CN1CCN(Cc2ccc(F)cc2Cl)C1=O)NCCc1ccc(Cl)cc1 | – | inconclusive: 0.0891 µM [inhibitor, full curve, poor fit]
12 | COc1cccc(-c2nc(CSCC(=O)NCc3ccc(C)cc3)c(C)o2)c1 | – | inconclusive: 50.1 µM [inhibitor, single point]
13 | Cc1ccc(-n2c(-c3ccccc3)c[nH]c2=S)cc1 | – | inconclusive: 31.6 µM [inhibitor, partial curve, poor fit]
14 | COC(=O)C1=C(C)N(Cc2ccco2)C(=O)N[C@@H]1c1ccccc1 | – | inconclusive: 100 µM [inhibitor, single point]
15 | O=C(O)c1cccc(C2CCCN(C(=O)c3ccccc3-n3cccn3)C2)c1 (stereo not drawn) | inactive: -0.311% | –
16 | O=C1CN(C(=O)c2ccc(S(=O)(=O)N3CCCC3)cc2)C(c2ccccc2)c2cc(Cl)ccc2N1 (stereo not drawn) | inactive: -3.14% | –
17 | Cn1ncc2c(C(=O)NCCc3ccc(Cl)cc3)cc(-c3ccc(Cl)cc3)nc21 | – | inconclusive: 89.1 µM [inhibitor, single point]
18 | CCc1c(C)sc(NC(=O)c2cccc(OC)c2)c1C#N | – | inconclusive: 39.8 µM [inhibitor, partial curve, poor fit]
19 | O=C(O)c1ccc(CSc2nnc(COc3ccc(Cl)cc3Cl)o2)cc1 | – | inconclusive: 100 µM [inhibitor, single point]
20 | CCCCn1c(CNC(=O)C23CC4CC(CC(C4)C2)C3)nnc1SC(C)CC (stereo not drawn) | – | inconclusive: 44.7 µM [inhibitor, partial curve, poor fit]
21 | Cc1ccc(S(=O)(=O)NCc2c(-c3ccccc3)noc2C)cc1 | – | inconclusive: 112 µM [inhibitor, single point]
22 | Cc1cccc2c(=O)c(-c3ccc(Cl)cc3)c(NC(=O)c3ccco3)oc12 | – | inconclusive: 3.16 µM [inhibitor, full curve, poor fit]
23 | COc1ccc(C(=O)Nc2nc(-c3nnn(-c4ccc(F)cc4F)c3C)ns2)cc1 | – | inconclusive: 89.1 µM [inhibitor, partial curve, poor fit]

Row | SMILES | activity change, negative = inhibition | Potency
24 | Cc1ccc(C(=O)NCc2nnc3cc(-c4nc(C5CC5)no4)ccn23)cc1F | inactive: -5.51% | –
25 | COc1ccc(CCN(C)CCCOc2ccc(S(=O)(=O)c3[nH]c4ccccc4c3C(C)C)cc2)cc1OC | inactive: 0% | –
26 | COc1cccc(C2c3cc4c(cc3OC(N3CCCC3)C2C)OCO4)c1O (stereo not drawn) | – | inconclusive: 44.7 µM [inhibitor, partial curve, poor fit]
27 | Cc1ccc(CNC(=O)Cn2cnc(S(=O)(=O)N3CCC(C)CC3)c2)o1 | inactive: 28% | –
28 | O=[S+]1([O-])NCC2(CCN(Cc3ccc(OC(F)(F)F)cc3)C2)Nc2ccccc21 (stereo not drawn) | inactive: 23.2% | –
29 | Cc1ccccc1-c1nnn(CC(=O)N2N=C(c3cccs3)CC2c2cccs2)n1 (stereo not drawn) | inactive: -29.4% | –
30 | C/C(=N\O)C(=O)OC1CC(C)CCC1C(C)C (stereo not drawn) | – | inconclusive: 63.1 µM [inhibitor, partial curve, poor fit]
31 | COC(=O)Nc1c(-c2ccccc2)nc2ccccn12 | – | inconclusive: 141 µM [inhibitor, partial curve, poor fit]
32 | CC(C)C(C)NC(=O)c1ccc(Cl)cc1 (stereo not drawn) | inactive: -3.89% | –
33 | Cc1cc(N2CCN(c3cccc(C(F)(F)F)c3)CC2)n2nc(-c3ccccc3C)nc2n1 | inactive: -23.4% | –
34 | Cc1noc(NS(=O)(=O)c2ccc(NC(=O)c3ccoc3C)cc2)c1C | inactive: -0.456% | –
35 | COc1ccc(NC(=O)CN(C)C(=O)c2cc(-c3ccncc3)nc3ccccc23)cc1 | inactive: 9.69% | –
36 | CNC(=O)C(C)(C)N1CCC[C@H]1C(=O)N(C)Cc1ccccc1 | inactive: -3.65% [at 176 µM] | –
37 | Cc1occc1C(=O)N1CC(C)CC(C)C1 (stereo not drawn) | – | inconclusive: 44.7 µM [inhibitor, partial curve, poor fit]
38 | OC(COc1ccc(Cl)cc1)CN1CCC(Cc2ccccc2)CC1 (stereo not drawn) | – | inconclusive: 89.1 µM [inhibitor, partial curve, poor fit]
39 | COc1ccc(Cl)cc1C(=O)NCc1nnc2ccc(-c3ccccc3)nn12 | – | inconclusive: 70.8 µM [inhibitor, partial curve, poor fit]
40 | Cc1nc2nc(C)c(NS(=O)(=O)c3ccc(Cl)s3)c(=O)n2[nH]1 | inconclusive: -33.3% [inhibitor] | –
41 | Cn1cc(C(=O)CCl)c2ccccc21 | inactive: -18.7% | –
42 | Clc1cccc(CSc2nccn2-c2ccccc2)c1 | inactive: -4.34% | –
43 | CCOc1ccc(C(CC(=O)Nc2ccc(C)cc2C)N2Cc3ccccc3C2=O)cc1OC (stereo not drawn) | inactive: 2.26% | –
44 | CC(Nc1ccc(Cl)cc1)C(=O)NC(N)=O (stereo not drawn) | inactive: 36.6% | –
45 | S=C(NC1CCCCC1)N1CCOCCOCCN(C(=S)NC2CCCCC2)CCOCCOCC1 | – | inconclusive: 6.31 µM [inhibitor, full curve, poor fit]
46 | CCC(=O)Nc1ccc2c(c1)nc(CCn1ccnc1C)n2C | – | inconclusive: 112 µM [inhibitor, single point]

Row | SMILES | activity change, negative = inhibition | Potency
47 | O=C(NCCCN1CCOCC1)c1ccccc1NS(=O)(=O)c1cc([N+](=O)[O-])ccc1Cl | – | inconclusive: 1.26 µM [inhibitor, full curve, poor fit]
48 | Cc1nn(C(C)(C)C)c(OC(=O)c2ccc(Br)o2)c1Sc1ccccc1 | – | inconclusive: 0.355 µM [inhibitor, full curve, poor fit]
49 | COc1cccc(Nc2nc(N)nc(-c3oc4ccccc4c3C)n2)c1 | – | inconclusive: 39.8 µM [inhibitor, partial curve]
50 | COc1ccccc1NS(=O)(=O)c1cccc(C(=O)N/N=C/c2ccccc2OCC(=O)O)c1 | – | inconclusive: 0.631 µM [inhibitor, full curve, poor fit]
51 | CCC(C)n1c(SCC(=O)NCCc2ccc(S(N)(=O)=O)cc2)nc2ccsc2c1=O (stereo not drawn) | inactive: -20.7% | –
52 | Oc1ccc(O)c(-c2cnns2)c1 | – | inconclusive: 44.7 µM [inhibitor, partial curve, poor fit]
53 | Cc1ccc(-c2cc(Nc3ccccc3)nc(C)n2)cc1 | – | active: 7.08 µM
54 | CCC(C(=O)Nc1cccnc1)n1c(=O)[nH]c2ccccc2c1=O (stereo not drawn) | – | inconclusive: 50.1 µM [inhibitor, partial curve, poor fit]
55 | CN(C)c1ccc(C2CC(c3c(O)n(C4CCCCC4)c(=O)[nH]c3=O)=Nc3ccccc3S2)cc1 (stereo not drawn) | – | inconclusive: 8.91 µM [inhibitor, full curve, poor fit]
56 | CCC(Sc1nc2nccnc2c(=O)n1CCc1ccccc1)C(=O)Nc1cccc(OC)c1 (stereo not drawn) | – | inconclusive: 50.1 µM [inhibitor, partial curve, poor fit]
57 | O=C(Nc1cccnc1)N1CCC(Cc2cccc(Oc3ccc(C(F)(F)F)cn3)c2)CC1 | – | inconclusive: 3.43 µM [inhibitor, full curve, poor fit]
58 | O=C(Nc1ccc([N+](=O)[O-])cc1Cl)c1cc(Cl)ccc1O | – | inconclusive: 1.09 µM [inhibitor, full curve, poor fit]
59 | N#Cc1c(N)n[nH]c1-c1cc2c([nH]1)CCCC2 | inactive: -22% | –
60 | CC(C)NC(=O)NC(=O)COC(=O)c1ncc(Cl)c(Cl)c1Cl | – | inconclusive: 44.7 µM [inhibitor, partial curve, poor fit]
61 | CCN(CC(=O)NCc1ccc(F)cc1)C(=O)C1CCN(S(=O)(=O)c2ccc(C(C)C)cc2)CC1 | – | inconclusive: 100 µM [inhibitor, partial curve, poor fit]
62 | CCCCC1=CC2=C(c3ccco3)C(=O)C(C)(OC(=O)c3ccc(OC)cc3)C(=O)C2=CN1CCCOC(C)C (stereo not drawn) | – | inconclusive: 31.6 µM [inhibitor, partial curve]
63 | O=C(CCCSc1nc2ccccc2s1)Nc1ccc(F)cc1 | inactive: 1.98% | –
64 | COCCN1CC2(CCC1=O)CCN(CC(O)C(F)(F)F)CC2 (stereo not drawn) | – | inconclusive: 89.1 µM [inhibitor, single point]
65 | COc1ccc(Nc2c(-c3ccco3)nc3cccc(C)n23)cc1 | – | inconclusive: 44.7 µM [inhibitor, partial curve, poor fit]
66 | O=C(Nc1ccccc1N1CCCC1)C1CCN(S(=O)(=O)c2ccc(F)cc2)CC1 | – | inconclusive: 28.2 µM [inhibitor, partial curve, poor fit]
67 | COC(=O)C1(Cc2ccc(O)c(CC3OC3(C)C)c2)OC(=O)C(O)=C1c1ccc(O)cc1 (stereo not drawn) | inactive: 2.41% | –
68 | CCC(C)NC(=O)CN(C1CCCCC1)S(C)(=O)=O (stereo not drawn) | – | inconclusive: 50.1 µM [inhibitor, partial curve, poor fit]

Random excerpt: 5 entries already listed.
Row | SMILES | activity change, negative = inhibition | Potency
63 | O=C(CCCSc1nc2ccccc2s1)Nc1ccc(F)cc1 | inactive: 1.98% | –
57 | O=C(Nc1cccnc1)N1CCC(Cc2cccc(Oc3ccc(C(F)(F)F)cn3)c2)CC1 | – | inconclusive: 3.43 µM [inhibitor, full curve, poor fit]
64 | COCCN1CC2(CCC1=O)CCN(CC(O)C(F)(F)F)CC2 (stereo not drawn) | – | inconclusive: 89.1 µM [inhibitor, single point]
59 | N#Cc1c(N)n[nH]c1-c1cc2c([nH]1)CCCC2 | inactive: -22% | –
47 | O=C(NCCCN1CCOCC1)c1ccccc1NS(=O)(=O)c1cc([N+](=O)[O-])ccc1Cl | – | inconclusive: 1.26 µM [inhibitor, full curve, poor fit]
